# Among all 53,000 sequences or so, about 3,700 (7%) were called active.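 Rule for the calls: active = gene knockdowns whose robust z-score for IL-1 alpha signal is at least 2 or at most -2, so actives lie on both sides; inactive = the rest.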 Some of the results follow.
# Experiment: Components of the Cytosolic LPS Sensing Pathway: Gene Identification via Genome-wide siRNA Screen;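 note: robust z of the log signal after scaling to non-targeting control siRNA wells of the plate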
# Conditions: RAW264.7 macrophages, IL-1a HTRF, actives lie on both sides, screened at 100 nM (by protocol), cells primed 5 h with Pam3CSK4 first
# Method in brief: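 RAW264.7; siRNA 100 nM final, RNAiMAX, 48h 37 degrees C; Pam3CSK4 5 h; LipidA + TransIT-TKO 24 h; IL-1a HTRF; CellTiter-Glo viability; robust z vs negative-control median.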
row,Sequence,z-score
1,GGAGAAGAAGAAAGAGCGGTT against Gja3,inactive: -0.981
2,CGAACUUCAAGACUGUGAUTT against Cep95,inactive: -0.248
3,GGAUGUGUUUGUGUGCAUGTT against Recql5,inactive: 0.785
4,CCCUUAGCGACUUUUCUAATT against Eif5b,inactive: 0.71
5,GGCAAAUCCCGUUCACUGATT against Magel2,inactive: -1.08
6,AGACCGAGUAAGUUUAACUTT against Lrrc39,inactive: 0.102
7,GGAAUAAUUGGUGUUAAAGTT against Hnrnpk,inactive: 0.346
8,GCCAAGAAAAUCAAGUCUCTT against Pknox2,inactive: 0.892
9,CGGAAUCAAGGACCGAGUUTT against Ndufab1,inactive: -0.0943
10,GACCACAGAUGACAUGGUGTT against Il12a,inactive: 0.447
11,GGAUGUGUUACUUACCAAATT against Map4,inactive: 0.607
12,GGAAACCUUCAGGUUCUGATT against Cdon,inactive: 0.703
13,GUUGUGCCUCCCUCAAUCATT against Ndufa7,inactive: -1.03
14,CGUAGGACUGAAUCAGCUUTT against Slc13a3,active: -3.04
15,GGCUAUCACAUGUAACUUCTT against Cplx3,inactive: -0.602
16,GGCAGAGAAGCAAAACCAATT against Iqcf3,inactive: -1.82
17,GGACUUCAUGCAUCUUACUTT against Stat1,inactive: -0.228
18,GGAUUAUAAGUGGAGAAUGTT against Sytl5,inactive: -0.468
19,GGCACUUCAAGGAGUUUUUTT against Lig4,active: 3.25
20,GGAAAAUACAGCGCGAAUUTT against Nexn,inactive: 1.4
21,GGAUCUCCUGCUUGAACUGTT against Adam33,active: 2.79
22,CCAUCACUCGAGCUUCUAGTT against Dhx30,inactive: 0.185
23,GGACCUCUAGCUGGAACACTT against Il17c,inactive: -1.08
24,CCUUGUGGUUUUCGUAACGTT against Mrgprb1,inactive: 1.79
25,CCAACUCCUGGAAGAUGCATT against Olfr1314,inactive: 1.06
26,GCGGAACUGACUUUCCUGATT against Rhot2,inactive: 0.443
27,GGUCAGAAUCUUUGUUCCUTT against Ndufs4,inactive: -0.912

# Pulled one by one from the list above:
row,Sequence,z-score
18,GGAUUAUAAGUGGAGAAUGTT against Sytl5,inactive: -0.468
19,GGCACUUCAAGGAGUUUUUTT against Lig4,active: 3.25
7,GGAAUAAUUGGUGUUAAAGTT against Hnrnpk,inactive: 0.346
9,CGGAAUCAAGGACCGAGUUTT against Ndufab1,inactive: -0.0943

# (continued)

row,Sequence,z-score
1,GGUUUUACCGAUGAUGCAUTT against Pcdhb20,inactive: -0.624
2,GCCACCCUAACAUUGUUUCTT against Gm4922,inactive: 1.98
3,GGUGUAAAGGAAAGAAGAATT against Gm9871,inactive: 0.684
4,GGAGACAUAUGAGACUCUGTT against Fcer1g,inactive: 0.156
5,GGAUGUUUGCUCUUGAGCGTT against Isoc1,active: -2.17
6,GGUAGAUGCUUUGAGCUUCTT against Enpp2,inactive: 0.17
7,GCUAUUCGUCAAUGCUGACTT against Abcf1,inactive: 0.0808
8,GCCAGAGCAUGAGUGAAAATT against Sephs2,inactive: 0.351
9,GGUGACUAGGAAGAACACGTT against Tmem9b,inactive: 1.99
10,GGAAUUUCCCAAAAGCACUTT against Nubp2,inactive: 1.7
11,GGUUGUCACCAUCAGUCCUTT against Vmn1r195,inactive: 0.219
12,GGGCUGUAUAUAAAAUAUCTT against Gprc5b,inactive: 0.44
13,GGUGGAAGACAAUGAAAUUTT against Ftsj1,inactive: -0.56
14,CCUCGACACUACUGUGUUATT against Mvp,inactive: -0.0476
15,GGCUACCAGGUUCUUAAACTT against Alox12b,inactive: 0.229
16,CCCUCUCCGAUAUAACACUTT against Olfr672,inactive: 1.45
17,GCCGGUCUUUCAAGAAGAUTT against Lnx1,inactive: 0.559
18,GGCAAAACAAAGAAUGAAATT against Prss40,inactive: -0.38
19,GGAUGAUGAGGAUGACUACTT against Trap1a,inactive: 0.313
20,GGUUAACUGAAUCAAAAAGTT against Pdhx,inactive: 1.84
21,GGAGGAACAAGUUGUGCCUTT against Gjd4,inactive: 0.146
22,GGUACAAAAUGGCUUGUUGTT against Tmem215,active: 2.53
23,GGACUUUCUUGAGGUAUUATT against Tbc1d19,inactive: -1.27
24,GCCCAAGAAUGUGCCUUAUTT against Olfr1278,inactive: -0.578
25,GGUGACCUAGAACCUACAGTT against Map2k3os,inactive: -0.0692
26,GGCAACAUCCAAAAAUAAATT against Cers4,inactive: -0.853

# Reference: PubChem BioAssay AID1508600 (Functional Genomics Laboratory (NCATS/FGL), 2020)
